According to paper doi:10.1101/2024.12.03.626411:
No constants are given. Whether binding was seen depends on the method and setting.

Chains of the proteins cited; added tags and fusions are not shown. Residues count along the entry.
UniProt Q04206, residues 19-325: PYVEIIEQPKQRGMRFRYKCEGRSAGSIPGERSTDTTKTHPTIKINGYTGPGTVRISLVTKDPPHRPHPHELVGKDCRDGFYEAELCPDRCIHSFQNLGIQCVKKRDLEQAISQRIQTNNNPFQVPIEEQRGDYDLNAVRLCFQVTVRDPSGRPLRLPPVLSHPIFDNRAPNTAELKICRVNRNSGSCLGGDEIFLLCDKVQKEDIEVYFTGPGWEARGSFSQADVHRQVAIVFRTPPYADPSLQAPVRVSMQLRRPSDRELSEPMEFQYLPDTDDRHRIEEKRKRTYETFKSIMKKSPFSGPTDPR

Assays:
[1] = target: P65 Rel Homology Region (P65RHR) (UniProt Q04206); experiment: SPR; P65RHR bound to biotinylated IgκB DNA on an SPR chip; p65 alone (50 nM) against p65 with pirin (12.5 – 200 nM); both purified
[2] = target: P65 Rel Homology Region (P65RHR) (UniProt Q04206); experiment: fluorescence polarisation; 5 nM FAM-labeled IgκB DNA with p65 from 3 nM to 4 μM, with or without 500 nM Fe(III)-pirin, 1 hour at room temperature; reads p65 binding to DNA, pirin's effect on it; both purified
[3] = target: P65 Rel Homology Region (P65RHR) (UniProt Q04206); experiment: SEC; P65RHR/DNA complex (20 μM) incubated with 40 μM Fe(III)-pirin for 1 hour at room temperature; Superdex 200 10/300 GL; 25 mM Tris HCl pH 7.5, 50 mM NaCl; fractions read by Coomassie staining (p65) and Western blot (pirin); both purified

binding [1]: no binding (tested: 12.5 – 200 nM)
binding [2]: no binding (tested: 500 nM)
binding [3]: no binding (tested: 40 μM)
B1: Fe(III)-pirin (protein, UniProt O00625 1-290)
chain: MGSSKKVTLSVLSREQSEGVGARVRRSIGRPELKNLDPFLLFDEFKGGRPGGFPDHPHRGFETVSYLLEGGSMAHEDFCGHTGKMNPGDLQWMTAGRGILHAEMPCSEEPAHGLQLWVNLRSSEKMVEPQYQELKSEEIPKPSKDGVTVAVISGEALGIKSKVYTRTPTLYLDFKLDPGAKHSQPIPKGWTSFIYTISGDVYIGPDDAQQKIEPHHTAVLGEGDSVQVENKDPKRSHFVLIAGEPLREPVIQHGPFVMNTNEEISQAILDFRNAKNGFERAKTWKSKIGN
